Values quoted from earlier work in patent US12485075B2, “Particulates of polyphenolics and dispersions thereof” (priority 2020, dated 2025).
At least one compound was matched to its structure with a doubt left.

Details: 10% w/w oil-in-water emulsions; cited from earlier work

C[C@@H]1O[C@@H](OC[C@H]2O[C@@H](Oc3c(-c4ccc(O)c(O)c4)oc4cc(O)cc(O)c4c3=O)[C@H](O)[C@@H](O)[C@@H]2O)[C@H](O)[C@H](O)[C@H]1O [Rutin, quercetin-3-O-rutinoside]
sun protection factor (SPF): ~30
